Test results taken from PubChem BioAssay AID1259415 (National Center for Advancing Translational Sciences (NCATS), 2018).
About 18,000 (4.4%) of roughly 410,000 compounds were called active. The shares of active, inactive and inconclusive entries below differ from those in the screen. Rule as the data show it: active = activity change below about -60%; inconclusive = no clear call, values can overlap the other calls; inactive = above about -39%.

Assay: qHTS Assay for inhibitors of the human cytomegalovirus (HCMV)
Conditions: HFF cells, HCMV-luciferase reporter, 72 h; at 57.5 µM; stronger effect = lower value
How it was run: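 After 16 h attachment at 37C, HFF cells received test compound and HCMV-luciferase (1 PFU/cell); reporter luminescence read 72 h later, data normalized against buffer-only and known inhibitor Salinomycin.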
% is scaled to controls: 0 for no effect and ±100 for the full control effect.

SMILES	activity change, negative = inhibition
CCc1cccc(-n2c(SCC(=O)c3c(N)n(C4CC4)c(=O)[nH]c3=O)nnc2N2CCOCC2)c1	inactive: -8.11%
O=C(CCCN1C(=O)/C(=C/c2ccc(F)cc2)SC1=S)Nc1ccc(C(=O)O)cc1	inconclusive: -43.2%
CN1CCc2c(sc(/N=C/c3cc(Cl)ccc3O)c2C#N)C1	inconclusive: -40.1%
Cc1ccc(/C=C(\NC(=O)c2ccccc2)C(=O)OCc2ccccc2)cc1	inconclusive: -48%
COc1ccccc1-c1nc(C#N)c(N2CCCCCC2)o1	inconclusive: -53.8%
Fc1ccc(CSc2ncnc3ccccc23)cc1	active: -67.5%
CCOc1ccc(/C=C/c2nc(C#N)c(N3CCCCCC3)o2)cc1	inconclusive: -48.9%
O=C(NCc1ccc(F)cc1F)Nc1cnccc1C(F)(F)F	active: -67.9%
CCOc1ccc(N2CC(C(=O)Nc3nnc(C4CCCCC4)s3)CC2=O)cc1 (stereo unspecified)	inactive: -3.19%
O=[N+]([O-])c1cc(S(=O)(=O)Oc2ccccc2)ccc1Cl	active: -88.7%
O=C(NCc1ccc(F)cc1Cl)c1ccc(CSCc2ccccc2Cl)o1	inconclusive: -50.3%
CC(C)CCn1c(=O)c2sccc2n2c(CCCC(=O)Nc3ccc(F)c(Cl)c3)nnc12	inconclusive: -56.7%
O=C(OCc1ccc([N+](=O)[O-])cc1)c1cc([N+](=O)[O-])ccc1N1CCOCC1	inactive: -26.8%
Cc1cccc(C)c1NC(=O)CSc1nnc(NC(=O)c2ccccc2C(=O)O)s1	inactive: -21.5%
CCc1c(C(C)S(=O)(=O)c2ccc(C)cc2)[nH]c(=O)n1-c1ccc(OC(F)(F)F)cc1 (stereo unspecified)	inconclusive: -42.6%
Cc1ccc(C)c(S(=O)(=O)N2CCCOC2CNC(=O)C(=O)NCCCN2CCOCC2)c1 (stereo unspecified)	inconclusive: -54.9%
CS(=O)(=O)Nc1ccc(C2=NN(C(=O)c3ccco3)C(c3cccc(F)c3)C2)cc1 (stereo unspecified)	inconclusive: -41%
O=C1CS/C(=N\N=C\c2ccccc2Cl)N1CC1CC1	inactive: -0.0686%
O=C(NCc1ccco1)c1cnc2sccn2c1=O	inactive: 24.6%
COc1ccc2[nH]c(=O)c(CN(CC3CCCO3)C(=S)Nc3ccccc3)cc2c1 (stereo unspecified)	inactive: -25.1%
O=C(Nc1ccc2nc(SCC(=O)N3CCc4ccccc43)sc2c1)c1ccc(Cl)cc1	active: -93.1%
Cc1cc(C)n(CCC(=O)N=Nc2c(O)[nH]c3ccc(Br)cc23)n1	inactive: 2.46%

SMILES	activity change, negative = inhibition
COc1ccc2oc(C(=O)OCC(=O)NCCc3ccc(S(N)(=O)=O)cc3)c(C)c2c1	inconclusive: -59.7%
CCCOc1ccc(CNC(=O)c2cc3oc4ccccc4c3n2C)cc1	active: -85.9%
Cc1cc(C)c(S(=O)(=O)N2CCN(C(=O)c3c(C)nn(-c4ccccc4)c3Cl)CC2)c(C)c1	active: -72%
Cc1ccc(Sc2cc(C(=O)NCCN(C)C)c3ccccc3n2)cc1	inactive: -37.7%
COc1cccc(C2NC(=S)NC(C)=C2C(=O)c2ccccc2)c1OC (stereo unspecified)	inconclusive: -53.5%
CC(=O)N1N=C(c2cccnc2)CC1c1ccccc1O (stereo unspecified)	inconclusive: -44.4%
Cc1cccnc1C(NC(=O)C1CCN(Cc2ccccc2)CC1)c1ccc(F)cc1 (stereo unspecified)	active: -61.7%
CCOC(=O)CN1C(=O)CCSc2ccc(Cl)cc21	inactive: 2.16%
COc1cc(/C=C/C(=O)N(C)c2ccccc2C(=O)O)cc(OC)c1OC	inconclusive: -41%
COc1cccc(C(=O)Cn2c(NCCO)nc3ccccc32)c1	inconclusive: -48.7%
FC(F)(F)c1nnc2c3ccccc3c(Cl)nn12	active: -86.4%
CC1CCN(C(c2ccccc2)c2nnnn2C(C)(C)C)CC1 (stereo unspecified)	inactive: -17.9%
Nc1nnc(SCc2nc3scc(-c4ccccc4)c3c(=O)[nH]2)s1	inconclusive: -52.1%
COCCn1c(SCC(=O)N2CCCC(C)C2)nnc1-c1ccco1 (stereo unspecified)	inconclusive: -53.6%
Cc1ccc(C)c(Oc2c(C(F)(F)F)oc3c(CN4CCN(C)CC4)c(O)ccc3c2=O)c1	inactive: -2.3%
COc1cccc(OC)c1C(=O)NC(=S)Nc1ccc2c(c1)OCCO2	inconclusive: -51.6%
O=c1c2c(nc3c(-c4cccc(Br)c4)c[nH]n13)CCCC2	active: -102%
COC(=O)c1ccc(CNC(=O)c2ccc3c(c2)OCCO3)cc1	inactive: 9.85%
COc1ccc(Nc2nc(N3CCOCC3)nc(N3CCOCC3)n2)cc1Cl	inactive: 18.3%
CCc1cc2c(NCCO)ncnc2s1	inconclusive: -49%
Cc1ccc(-c2nc(CS(=O)CC(=O)NCCN(CC(C)C)CC(C)C)c(C)o2)cc1 (stereo unspecified)	inactive: 8.76%
C=CCn1c(=NC(=O)c2ccccc2[N+](=O)[O-])sc2cc(S(C)(=O)=O)ccc21	inactive: -0.401%

SMILES	activity change, negative = inhibition
CC(=NNc1nc2ccccc2o1)c1cc2ccccc2cn1	active: -99.1%
O=C1C(=O)N(c2ccc(O)cc2)C(c2ccccc2[N+](=O)[O-])/C1=C(\O)c1ccccc1 (stereo unspecified)	inactive: 19%
COc1cccc(-n2c(SCc3cc(=O)oc4cc(O)c(O)cc34)nc3ccccc3c2=O)c1	inconclusive: -43.9%
Clc1ccc(/C=N/NC(=Nc2ccccc2)c2ccccn2)c(Cl)c1	inactive: 49.5%
CC1CCN(C(=O)c2[nH]cnc2C(=O)N[C@@H](Cc2ccccc2)C(=O)OC(C)(C)C)CC1	inconclusive: -41.3%
COc1ccc(-c2cn[nH]c2-c2ccc(OCC(=O)NN)cc2O)cc1	inconclusive: -41%
C#CCOCCOCCOCCNc1nc(N2CCN(C(=O)[C@H](CCCCN)n3cc(CCC(=O)O)nn3)CC2)nc(N2CCN(C(=O)[C@H](CCCCN)n3cc(CC(C)O)nn3)CC2)n1 (stereo partly specified)	inconclusive: -43.8%
COc1ccc(C(=O)NCCc2nc3ccccc3[nH]2)cc1	inconclusive: -48.5%
CS(=O)(=O)N1Cc2cc(C(=O)NCC3CCCCC3)nc(-c3cccc(-c4cccnc4)c3)c2[C@H]1CCO	inactive: -8.58%
COc1ccccc1N1CCN(C(=O)c2[nH]c(C(F)(F)F)nc2-c2ccccc2)CC1	active: -63.8%
CSCC[C@H](NC(=O)Cc1ccc(Cl)cc1)C(=O)N1CCC2(CC1)NCCc1[nH]cnc12	inconclusive: -46.6%
Cc1ccc(NCc2nnc(SCC(N)=O)n2CC2CCCO2)c(C)c1 (stereo unspecified)	inactive: 24.6%
Cc1c(Cl)cccc1NC(=S)NC(=O)c1ccccc1	inconclusive: -47.7%
CN(CCOc1ccc(Cl)cc1)Cc1cccc(S(=O)(=O)N(C)C)c1	inconclusive: -50.9%
Cc1ccc(C(=O)Nc2ccc(Cl)cc2C(=O)c2ccccc2)cc1	inconclusive: -46.7%
O=C(Nc1ccc(Oc2ccccc2)cc1)c1csc([C@@H]2O[C@H](CO)[C@@H](O)[C@H]2O)n1	active: -93.3%
Cc1ccc(NC(=O)CN(C)C(=O)Cn2nnc(-c3ccccc3)n2)cc1	inactive: -24.5%
Cc1ccc(-c2csc3nc(CN(C)Cc4ccccc4)[nH]c(=O)c23)cc1	inconclusive: -57.5%
C[C@@H]1Cn2cnc(C(=O)Nc3ccc(CNC(=O)OC(C)(C)C)cc3)c2C(=O)N1	active: -101%
Cc1cc(=O)oc(C)c1C(=O)N1CCN(C)CC1	inconclusive: -50.4%
CCOc1cccc(C(=O)Nc2ccccc2N2CCN(C(=O)C(C)C)CC2)c1	inconclusive: -40.9%
O=C(Nc1nccs1)c1cc(S(=O)(=O)N2CCOCC2)c(Cl)cc1Cl	inactive: 32.2%

SMILES	activity change, negative = inhibition
CC(=NNC(N)=S)c1ccc2cc3c(cc2c1)OCO3	inactive: 111%
Cc1[nH]c2ccccc2c1/C=N/NC(=S)NC(C)C	inconclusive: -56.2%
CCOC(=O)Cn1nnnc1CN(Cc1cccs1)Cc1cc2cc(C)cc(C)c2[nH]c1=O	inactive: 12.1%
CCCc1c(NC(=O)Nc2ccc(F)cc2)cnn1-c1ccccc1	active: -67.2%
CCSc1nnc(NC(=O)C2CCN(S(=O)(=O)c3cc(C(F)(F)F)ccc3Cl)CC2)s1	inconclusive: -45%
CC(=O)Nc1ccc(Nc2ccc(S(=O)(=O)C(F)(F)F)cc2[N+](=O)[O-])cc1	active: -97%
O=C(NCC(c1ccco1)S(=O)(=O)c1cccs1)c1ccc(C(F)(F)F)cc1 (stereo unspecified)	inactive: 14.8%
O=C(c1ccc2ccccc2c1)N1CCCCC1	inactive: 4.66%
CCCN1C2CCCC1CC(NC(=O)c1ccc(C(C)(C)C)cc1)C2 (stereo unspecified)	inactive: -12.3%
CCOc1cc(Cl)c(S(=O)(=O)n2cc(C)nc2CC)cc1Cl	inconclusive: -46.5%
Cc1ccc(CNCc2cc(Cl)ccc2O)cc1	inactive: -24.3%
O=C(NCCCN1CCOCC1)c1ccc2c(c1)N(Cc1cccc(Cl)c1)C(=O)CS2	inconclusive: -52.1%
Cc1ccc(C(=O)NCCSc2ccc(Cl)cc2)cc1S(=O)(=O)Nc1ccccc1	inconclusive: -58.1%
CCc1ccc(OC(=O)c2sc3ncn(Cc4cccc(F)c4)c(=O)c3c2C)cc1	inactive: 13.9%
COC(=O)c1c(C)oc2ccc(OC(=O)c3cccs3)cc12	inconclusive: -41.3%
Cc1cc(SCC(=O)NCCN2C(=O)CSC2=O)nc2c(C)cccc12	inconclusive: -52%
CN1CCN(c2ccc(S(=O)(=O)N3CCCCC3)cc2NC(=O)Cc2ccccc2F)CC1	inconclusive: -51.3%
COc1ccccc1OCCOc1ccc(C(=O)c2ccccc2)cc1	inconclusive: -42.4%
COc1ccc(CC(=O)Nc2ccc3nc(C)sc3c2)cc1OC	inconclusive: -44.7%
COc1ccc(/C=N/Nc2nc(C(=O)O)cs2)cc1	inactive: 30%
